Residue numbers refer to the chain shown, from its start. In names and notes the source's numbering stands. No constants are given. Whether binding was seen depends on the method and setting. Some entries that bind do so weakly or less than the wild type. Where a sequence is shown, tags or fusion partners need not be part of it.
B1: Maternal expression at 31B (Me31B), GAL4 activation domain fusion (protein, UniProt P23128 1-459)
chain: MMTEKLNSGHTNLTSKGIINDLQIAGNTSDDMGWKSKLKLPPKDNRFKTTDVTDTRGNEFEEFCLKRELLMGIFEKGWERPSPIQEAAIPIALSGKDVLARAKNGTGKTGAYCIPVLEQIDPTKDYIQALVMVPTRELALQTSQICIELAKHLDIRVMVTTGGTILKDDILRIYQKVQLIIATPGRILDLMDKKVADMSHCRILVLDEADKLLSLDFQGMLDHVILKLPKDPQILLFSATFPLTVKNFMEKHLREPYEINLMEELTLKGVTQYYAFVQERQKVHCLNTLFSKLQINQSIIFCNSTQRVELLAKKITELGYCCYYIHAKMAQAHRNRVFHDFRQGLCRNLVCSDLFTRGIDVQAVNVVINFDFPRMAETYLHRIGRSGRFGHLGIAINLITYEDRFDLHRIEKELGTEIKPIPKVIDPALYVANVGASVGDTCNNSDLNNSANEEGNVSK
B2: Me31B 366-459 (D2 domain fragment), GAL4 activation domain fusion (domain or fragment, UniProt P23128 366-459)
chain: VVINFDFPRMAETYLHRIGRSGRFGHLGIAINLITYEDRFDLHRIEKELGTEIKPIPKVIDPALYVANVGASVGDTCNNSDLNNSANEEGNVSK
B3: Me31B Y401A, GAL4 activation domain fusion (protein, UniProt P23128 1-459)
chain: B1 chain with Y401A

Tests used:
[1] = biological target: T1, eIF4E-1 W117A, GAL4 DNA-binding domain fusion (Drosophila melanogaster) (UniProt P48598); test: two-hybrid
T1 sequence: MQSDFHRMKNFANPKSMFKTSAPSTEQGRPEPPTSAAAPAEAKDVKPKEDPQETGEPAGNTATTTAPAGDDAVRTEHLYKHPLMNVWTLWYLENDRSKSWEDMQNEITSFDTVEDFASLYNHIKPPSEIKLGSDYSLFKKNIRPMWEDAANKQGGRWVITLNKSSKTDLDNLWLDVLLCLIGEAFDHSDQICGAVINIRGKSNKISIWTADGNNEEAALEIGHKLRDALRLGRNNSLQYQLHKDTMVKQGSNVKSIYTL

[2] = biological target: T2, eIF4E-1, GAL4 DNA-binding domain fusion (Drosophila melanogaster) (UniProt P48598); test: two-hybrid
T2 sequence: T1 sequence with A117W

Binder | binding [1] | binding [2]
B1 | no binding | binds
B2 | – | binds
B3 | – | no binding
